Assay results as given in the supplement of paper PMC7125110.
± gives the standard error. The uncertainty is large for many entries.

B1: glmS ribozyme (parent)
chain: AUAAAAGCGCCAGAACUACAGAAAUGUAGUUGACGAGGAGGAGGUUUAUCGAAUUUUCGGCGGAUGCCUCCAAA

Variants of: B1
Test: self-cleavage kobs at 40 uM GlcN6P; higher = faster cleavage; RNA array
Settings: with glucosamine-6-phosphate
Outline: (§1)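 On sequenced MiSeq chips, barcoded ribozyme variants were made in situ by E. coli RNA polymerase and followed at 37 °C through a hybridised Cy3 probe. Glucosamine-6-phosphate was flowed in at 40 μM to 10 mM in HEPES/KCl/Mg(OAc)2 buffer. Exponential fits to normalised per-tile medians gave kobs, and weighted Michaelis–Menten fits gave kcat and KM.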

Row | Variant | self-cleavage kobs at 40 uM GlcN6P [s⁻¹]
1 | A39U G41U | 2e-05 ± 1.1e-05
2 | G40A A53G C70A | 2.25e-05 ± 1.9e-05
3 | G40C U55A | 4.25e-05 ± 2.4e-05
4 | G40U C70A | 1.49e-05 ± 1.1e-05
5 | G41A U46G | 3.8e-05 ± 2e-05
6 | G41A U47G | 1.44e-05 ± 1.4e-05
7 | G41U U46G | 4.44e-05 ± 2.3e-05
8 | G44A U65G C67U | 2.02e-05 ± 1.5e-05
9 | U45C G66U | 2.65e-05 ± 1.9e-05
10 | U45C U56G | 1.88e-05 ± 1e-05
11 | U46A U56A | 1.66e-05 ± 9.5e-06
12 | U46G A53C | 1.84e-05 ± 9.8e-06
13 | U46G G66U | 2.59e-05 ± 1.6e-05
14 | U47A A53G U55A G66C | 2.45e-05 ± 2.2e-05
15 | U47A U65C | 3.24e-05 ± 2.3e-05
16 | U47G A48U U56G C68A | 3.23e-05 ± 2.4e-05

Row | Variant | self-cleavage kobs at 40 uM GlcN6P [s⁻¹]
17 | U47G A52G | 1.75e-05 ± 1.3e-05
18 | U47G C50G C68U | 2.61e-05 ± 1.8e-05
19 | A48G C50U A52U C70G | 2.76e-05 ± 2.3e-05
20 | C50G G63U | 2.01e-05 ± 1.3e-05
21 | C50G U56A | 2.91e-05 ± 1.9e-05
22 | C50U U56G C70G | 3.76e-05 ± 2.2e-05
23 | A52G C70G | 2.04e-05 ± 1.3e-05
24 | U54G G66C | 2.1e-05 ± 1.3e-05
25 | U54G U65C | 2.34e-05 ± 1.2e-05
26 | U56G U69G | 2.78e-05 ± 1.7e-05
27 | C58A C68G | 1.54e-05 ± 1.3e-05
28 | C58G U69C | 2.58e-05 ± 1.5e-05
29 | C58U C68A C71G | 2.77e-05 ± 2.4e-05
30 | U65A C68G | 2.73e-05 ± 2e-05
31 | U65A C70A | 2.04e-05 ± 1.9e-05
32 | U65G G66C | 2.12e-05 ± 1.8e-05

3 entries picked at random from those above:
Row | Variant | self-cleavage kobs at 40 uM GlcN6P [s⁻¹]
15 | U47A U65C | 3.24e-05 ± 2.3e-05
22 | C50U U56G C70G | 3.76e-05 ± 2.2e-05
13 | U46G G66U | 2.59e-05 ± 1.6e-05

Quoted from the results shown for reference:
Row | Variant | self-cleavage kobs at 40 uM GlcN6P [s⁻¹]
20 | C50G G63U | 2.01e-05 ± 1.3e-05
21 | C50G U56A | 2.91e-05 ± 1.9e-05

Variants of: B1
Test: self-cleavage kobs at 2500 uM GlcN6P; higher = faster cleavage; RNA array
Settings: with glucosamine-6-phosphate
Outline: as §1

Row | Variant | self-cleavage kobs at 2500 uM GlcN6P [s⁻¹]
33 | A48G C50U A52U C70G | 2.01e-05 ± 1.9e-05
34 | C50G G63U | 2.37e-05 ± 1.7e-05
35 | C8G C16G A36U C50G | 5.84e-05 ± 3.1e-05
36 | C8U A15G C16U C68G | 3.71e-05 ± 2.2e-05
37 | G9U C50G | 2.42e-05 ± 1.6e-05
38 | C10A A14G G32U G37U G38U C70A | 5.11e-05 ± 2.8e-05
39 | C10A A64G G66U C68G | 4.82e-05 ± 2.9e-05
40 | C10A C70U C71A | 2.52e-05 ± 1.9e-05
41 | C10G G32U U54G C68A | 6.01e-05 ± 3.5e-05
42 | C10U U30G C70U | 4.45e-05 ± 2.3e-05
43 | C11G A64G U69C C71U | 3.05e-05 ± 2.2e-05
44 | C11G G32A U69G | 3.91e-05 ± 2.7e-05

Variants of: B1
Test: self-cleavage kobs at 640 uM GlcN6P; higher = faster cleavage; RNA array
Settings: with glucosamine-6-phosphate
Outline: as §1

Row | Variant | self-cleavage kobs at 640 uM GlcN6P [s⁻¹]
45 | C50G G63U | 2.48e-05 ± 1.9e-05
46 | A6C A53U | 1.46e-05 ± 9.5e-06
47 | A6C C10A C70G | 2.75e-05 ± 2.3e-05
48 | A6G A14C | 1.82e-05 ± 1e-05
49 | A6G G7A U57A G66A C68G | 0.000595 ± 0.0004
50 | A6U A15U | 1.58e-05 ± 1.1e-05
51 | A6U A52G C67G | 2.92e-05 ± 1.8e-05
52 | A6U C68G | 1.65e-05 ± 1.5e-05
53 | G7A A33G A52G C68A | 0.00128 ± 0.00068
54 | G7U G29A A53G C70A | 0.00219 ± 0.0017
55 | G7U U46A C50G G60A U65G U69A | 3.82e-05 ± 2.4e-05
56 | G7U U54G C70G C71U | 3.79e-05 ± 3.7e-05
57 | C8G C16G A36U C50G | 0.000951 ± 0.00056
58 | C8G U69G | 0.00159 ± 0.0012
59 | C8U A15G C16U C68G | 6.08e-05 ± 3.8e-05
60 | C8U C50G G63U | 2.34e-05 ± 2.3e-05
61 | G9U C50G | 0.000513 ± 0.00041
62 | C10A A12C U30A U31A | 5.2e-05 ± 3.3e-05

Row | Variant | self-cleavage kobs at 640 uM GlcN6P [s⁻¹]
63 | C10A A14G G32U G37U G38U C70A | 4.16e-05 ± 2.8e-05
64 | C10A A64G G66U C68G | 5.33e-05 ± 2.9e-05
65 | C10A C70U C71A | 3.45e-05 ± 2.8e-05
66 | C10G C11A U30C A36C G37U C70A C71U | 0.00106 ± 0.00055
67 | C10G C50U C61A C67G | 3.69e-05 ± 3e-05
68 | C10G G32U U54G C68A | 4.34e-05 ± 3.7e-05
69 | C10U A64G | 1.9e-05 ± 1.1e-05
70 | C10U C16U G32U | 4.25e-05 ± 3.4e-05
71 | C10U C70G | 2.12e-05 ± 1.6e-05
72 | C10U G63U C67G | 2.66e-05 ± 1.9e-05
73 | C10U U30G C70U | 3.17e-05 ± 2.2e-05
74 | C11G A14U A33U A52U C70U C71U | 2.9e-05 ± 2.3e-05
75 | C11G A64G U69C C71U | 3.3e-05 ± 2.9e-05
76 | C11G C61U U69G | 3e-05 ± 2.5e-05
77 | C11G C68A | 1.96e-05 ± 1.6e-05
78 | C11G G32A U69G | 3.94e-05 ± 2.5e-05
79 | C11U A15G G43A C67G | 1.54e-05 ± 1.5e-05

Variants of: B1
Test: self-cleavage kobs at 160 uM GlcN6P; higher = faster cleavage; RNA array
Settings: with glucosamine-6-phosphate
Outline: as §1

Row | Variant | self-cleavage kobs at 160 uM GlcN6P [s⁻¹]
80 | C50G G63U | 3.61e-05 ± 1.8e-05
81 | C50G U56A | 3.17e-05 ± 2.4e-05
82 | U56G U69G | 4.18e-05 ± 2.4e-05
83 | C8U A15G C16U C68G | 4.43e-05 ± 2.8e-05
84 | G9U C50G | 2.77e-05 ± 1.7e-05
85 | C10A C70U C71A | 3.37e-05 ± 2.3e-05
86 | C10U C70G | 2.21e-05 ± 1.2e-05

Variants of: B1
Test: self-cleavage kobs at 10000 uM GlcN6P; higher = faster cleavage; RNA array
Settings: with glucosamine-6-phosphate
Outline: as §1

Row | Variant | self-cleavage kobs at 10000 uM GlcN6P [s⁻¹]
87 | C50G U56A | 2.4e-05 ± 1.5e-05
88 | C58A C68G | 1.53e-05 ± 1e-05
89 | C58G U69C | 2.03e-05 ± 1.5e-05
90 | G7U U46A C50G G60A U65G U69A | 0.000779 ± 0.00045
91 | C8U A15G C16U C68G | 3.1e-05 ± 2e-05
92 | C8U C50G G63U | 2.03e-05 ± 1.9e-05
93 | C11G G32A U69G | 2.12e-05 ± 1.9e-05
